Measured values as given in ChEMBL document CHEMBL4316593 (Eur J Med Chem, 2019).
The source gives many values for each of these; only a part stands here.

Experiments:
Format in all cases: cell-based
Conditions in all cases: U-87MG ATCC
[1] = Inhibition of RTK/PI3K/AKT/mTOR signaling in human U87 cells assessed as up regulation of APOLD1 gene expression at cytotoxic IC50 measured after 48 hrs relative to control
[2] = Inhibition of RTK/PI3K/AKT/mTOR signaling in human U87 cells assessed as down regulation of MICA gene expression at cytotoxic IC50 measured after 48 hrs relative to control
[3] = Inhibition of RTK/PI3K/AKT/mTOR signaling in human U87 cells assessed as up regulation of androgen induced 1 gene expression at cytotoxic IC50 measured after 48 hrs relative to control
[4] = Inhibition of RTK/PI3K/AKT/mTOR signaling in human U87 cells assessed as down regulation of SAP30BP gene expression at cytotoxic IC50 measured after 48 hrs relative to control
[5] = Inhibition of RTK/PI3K/AKT/mTOR signaling in human U87 cells assessed as up regulation of fucosyltransferase 1 (H blood group) gene expression at cytotoxic IC50 measured after 48 hrs relative to control
[6] = Inhibition of RTK/PI3K/AKT/mTOR signaling in human U87 cells assessed as down regulation of ZNF16 gene expression at cytotoxic IC50 measured after 48 hrs relative to control
[7] = Inhibition of RTK/PI3K/AKT/mTOR signaling in human U87 cells assessed as down regulation of CD163L1 gene expression at cytotoxic IC50 measured after 48 hrs relative to control
[8] = Inhibition of RTK/PI3K/AKT/mTOR signaling in human U87 cells assessed as up regulation of zinc finger protein 664 gene expression at cytotoxic IC50 measured after 48 hrs relative to control
[9] = Inhibition of RTK/PI3K/AKT/mTOR signaling in human U87 cells assessed as up regulation of ALDOA gene expression at cytotoxic IC50 measured after 48 hrs relative to control
[10] = Inhibition of RTK/PI3K/AKT/mTOR signaling in human U87 cells assessed as up regulation of serine hydroxymethyltransferase 2 gene expression at cytotoxic IC50 measured after 48 hrs relative to control
[11] = Inhibition of RTK/PI3K/AKT/mTOR signaling in human U87 cells assessed as up regulation of C6orf223 gene expression at cytotoxic IC50 measured after 48 hrs relative to control
[12] = Inhibition of RTK/PI3K/AKT/mTOR signaling in human U87 cells assessed as up regulation of solute carrier family 25 member 43 gene expression at cytotoxic IC50 measured after 48 hrs relative to control
[13] = Inhibition of RTK/PI3K/AKT/mTOR signaling in human U87 cells assessed as down regulation of GINS4 gene expression at cytotoxic IC50 measured after 48 hrs relative to control
[14] = Inhibition of RTK/PI3K/AKT/mTOR signaling in human U87 cells assessed as up regulation of FLYWCH-type zinc finger 1 gene expression at cytotoxic IC50 measured after 48 hrs relative to control
[15] = Inhibition of RTK/PI3K/AKT/mTOR signaling in human U87 cells assessed as up regulation of SEH1 like nucleoporin gene expression at cytotoxic IC50 measured after 48 hrs relative to control
[16] = Inhibition of RTK/PI3K/AKT/mTOR signaling in human U87 cells assessed as down regulation of CDKN2AIP gene expression at cytotoxic IC50 measured after 48 hrs relative to control
[17] = Inhibition of RTK/PI3K/AKT/mTOR signaling in human U87 cells assessed as down regulation of AHSA1 gene expression at cytotoxic IC50 measured after 48 hrs relative to control
[18] = Inhibition of RTK/PI3K/AKT/mTOR signaling in human U87 cells assessed as up regulation of oxysterol binding protein like 3 gene expression at cytotoxic IC50 measured after 48 hrs relative to control
[19] = Inhibition of RTK/PI3K/AKT/mTOR signaling in human U87 cells assessed as down regulation of HBS1L gene expression at cytotoxic IC50 measured after 48 hrs relative to control
[20] = Inhibition of RTK/PI3K/AKT/mTOR signaling in human U87 cells assessed as down regulation of B4GALNT1 gene expression at cytotoxic IC50 measured after 48 hrs relative to control
[21] = Inhibition of RTK/PI3K/AKT/mTOR signaling in human U87 cells assessed as up regulation of methylenetetrahydrofolate dehydrogenase (NADP+ dependent) 1-like gene expression at cytotoxic IC50 measured after 48 hrs relative to control
[22] = Inhibition of RTK/PI3K/AKT/mTOR signaling in human U87 cells assessed as down regulation of HSPH1 gene expression at cytotoxic IC50 measured after 48 hrs relative to control
[23] = Inhibition of RTK/PI3K/AKT/mTOR signaling in human U87 cells assessed as up regulation of zinc finger DHHC-type containing 20 gene expression at cytotoxic IC50 measured after 48 hrs relative to control
[24] = Inhibition of RTK/PI3K/AKT/mTOR signaling in human U87 cells assessed as down regulation of DNAJA4 gene expression at cytotoxic IC50 measured after 48 hrs relative to control
[25] = Inhibition of RTK/PI3K/AKT/mTOR signaling in human U87 cells assessed as down regulation of STX1A gene expression at cytotoxic IC50 measured after 48 hrs relative to control
[26] = Inhibition of RTK/PI3K/AKT/mTOR signaling in human U87 cells assessed as up regulation of BOP1 gene expression at cytotoxic IC50 measured after 48 hrs relative to control
[27] = Inhibition of RTK/PI3K/AKT/mTOR signaling in human U87 cells assessed as up regulation of TMEM132A gene expression at cytotoxic IC50 measured after 48 hrs relative to control
[28] = Inhibition of RTK/PI3K/AKT/mTOR signaling in human U87 cells assessed as up regulation of ERF gene expression at cytotoxic IC50 measured after 48 hrs relative to control
[29] = Inhibition of RTK/PI3K/AKT/mTOR signaling in human U87 cells assessed as down regulation of STPG1 gene expression at cytotoxic IC50 measured after 48 hrs relative to control
[30] = Inhibition of RTK/PI3K/AKT/mTOR signaling in human U87 cells assessed as up regulation of solute carrier family 7 member 6 gene expression at cytotoxic IC50 measured after 48 hrs relative to control
[31] = Inhibition of RTK/PI3K/AKT/mTOR signaling in human U87 cells assessed as down regulation of CHCHD7 gene expression at cytotoxic IC50 measured after 48 hrs relative to control
[32] = Inhibition of RTK/PI3K/AKT/mTOR signaling in human U87 cells assessed as down regulation of DHRS7 gene expression at cytotoxic IC50 measured after 48 hrs relative to control

CC(=O)C(=NNc1ccccc1C#N)C(C)=O
log2FC [1]: 2.33 | log2FC [2]: -0.953 | log2FC [3]: 0.974 | log2FC [4]: -0.891 | log2FC [5]: 1.03 | log2FC [6]: -0.904 | log2FC [7]: -1.7 | log2FC [8]: 0.674 | log2FC [9]: 1.73 | log2FC [10]: 0.929 | log2FC [11]: 3.5 | log2FC [12]: 1.42 | log2FC [13]: -1.21 | log2FC [14]: 0.703 | log2FC [15]: 0.648 | log2FC [16]: -1.52 | log2FC [17]: -0.989 | log2FC [18]: 1.02 | log2FC [19]: -0.538 | log2FC [20]: -0.958 | log2FC [21]: 0.935 | log2FC [22]: -3.63 | log2FC [23]: 0.811 | log2FC [24]: -1.71 | log2FC [25]: -0.971 | log2FC [26]: 0.533 | log2FC [27]: 0.604 | log2FC [28]: 0.639 | log2FC [29]: -0.945 | log2FC [30]: 1.02 | log2FC [31]: -1.09 | log2FC [32]: -0.877
